## Percent effect of library compounds

Measurements from “University of Dundee, Small-Polar-MMV Screening Library” (2021), ChEMBL document CHEMBL3988442.

T. brucei: 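Whole-parasite assay of Trypanosoma brucei over 72 hours; the read-out is not stated. Compounds at 30 µM. Higher reads as stronger inhibition (inferred: compounds with an IC50 in retests scored well above the rest). Values scatter widely below zero; nearly all retest evidence comes from the higher of the two concentrations used. Size under these conditions: about 64,000 compounds, about 940 of them at 50% or above in at least one test.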
Leishmania in macrophages: 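Cell assay of Leishmania donovani living inside macrophages; the read-out is not stated. Compounds at 30 µM. The record gives no direction; compounds that gave an IC50 in retests scored well above the rest, so higher reads as stronger inhibition. Of about 69,000 compounds tested this way, about 1,000 (1.5%) reached 50% or more in at least one test.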

Each number is a percent effect as filed.
The record does not define 0% and 100%; most values in the screen are far below 50% and negative numbers occur (in some assays of this library far below -100).
The compounds are a random part of those screened.
Two or more numbers in one place are separate tests of the same structure; such repeats can differ widely.
A dash means the value is not listed here; it may have been measured.

SMILES,T. brucei,Leishmania in macrophages
O=C(CN1CCN(c2ccnc3c(F)ccc(F)c23)CC1)NC1CC1,-14.27%,-5.563%
COC(=O)c1cc2c(OC)c(C)c(OC)cc2[nH]1,-46.58%,1.553%
CN1CCCC(c2cccc(CCC(=O)NCC3(C)COC3)n2)C1 (stereo not given),0.07652%,4.974% and 2.462%
CCSc1ncc(CN2CCN(c3ccc(C#N)cc3)C(=O)C2)cn1,-35.08%,14.84%
O=C(NCC1(c2ccc(F)cc2)CCCC1)N1CCOC(CO)C1 (stereo not given),-41.75%,-34.62%
COCCN1C[C@@H](C)[C@@]2(COCCN(C(=O)c3ccno3)C2)C1.O=C(O)C(F)(F)F,24.93%,18.78%
CC(=O)N1CC(C(=O)NCCc2ncc(C)s2)C1,-17.35%,7.78%
Fc1cccc2c1CCC2NCc1cnc(N2CCOCC2)nc1 (stereo not given),-15.77%,10.64%
c1cnc(N2CCOCC3(CNCCO3)C2)nc1 (stereo not given),-21.73%,10.72%
CCNC(=O)c1cc2n(n1)CCCO2,-1.022%,9.537%
Cn1nccc1-c1nnn2c1COCC(CNC1CCOCC1)C2.O=C(O)C(F)(F)F.O=C(O)C(F)(F)F (stereo not given),-64.83%,23.97%
CC(CCNC(=O)NCCc1ccncc1)c1ccccc1 (stereo not given),-15.95%,-15%
O=C(CCn1cc(Cl)cn1)N1CCC2(CC1)OCCCC2O (stereo not given),-20.67%,-10.63%
Cc1cc(C)n(-c2ccc(CNCc3cccc(C#N)c3)cn2)n1,62.16%,12.46%
CC(C)NC[C@H]1COCc2nc3cccnc3n21,-1.557%,18.62%
CCCC1(CO)CCCN(Cc2nccs2)C1 (stereo not given),-9.435%,2.99%
CCOC(=O)c1cnn(C2CCN(C(=O)CC3C=CCC3)CC2)c1N (stereo not given),-2.8%,19.58%
CCCN1CCC(c2nc3ccc(-c4ccccc4)cn3n2)CC1.O=C(O)C(F)(F)F,24.26%,22.28%
Cc1cc(NC(=O)CN2CCCC2c2noc(C)n2)n(C(C)(C)C)n1 (stereo not given),-8.552%,-2.453%
O=C1NCC2(CCCN(Cc3ccc(F)cc3)C2)Oc2ccccc21 (stereo not given),13.09%,17.72%
Cc1nccc(CN2CC[C@H](Oc3cccc(F)c3)[C@@](C)(O)C2)n1,12.41%,-8.399%
CC(C)c1nc(CN2CCN(C(=O)Cc3ccccc3Cl)CC2)no1,-4.259%,30.32%
COCc1c(C(=O)O)nnn1Cc1cccc(C(F)(F)F)c1,28.52%,10.74%
CCCS(=O)(=O)N1CCC2(CCCN(c3ncc(F)cn3)C2)C1 (stereo not given),-28.91%,14.48%
Cc1cn(-c2ccccc2)nc1NS(=O)(=O)c1ccc(C(=O)O)cc1,-11.16%,28.42%
O=C(CCCNC(=O)Nc1ccc(F)cc1F)Nc1cn[nH]c1,-109%,-18.62%
[H][C@@]12CC(=O)N(C)[C@@]1([H])CCN2C(=O)c1ccc[nH]1,-20.46%,-24.12%
O=C(c1ccn(-c2ccccc2Cl)n1)N1CCCSCC1,-1.874%,4.59% and 4.128%
N#Cc1cccc(N2CCCC(CO)(Cc3ccccc3F)C2)n1 (stereo not given),5.148%,29.41%
O=S(=O)(NCc1cccnc1OC1CCCC1)N1CCCCC1,0.9932%,-4.69%
CCCN1CCC2(C1)c1ccccc1S(=O)(=O)N2Cc1ccccc1.O=C(O)C(F)(F)F (stereo not given),36.99%,32.5%
CN1C[C@@H](NC(=O)CC(C)(C)C)C[C@H]1c1nc(-c2cnccn2)no1,2.779%,8.755%
[H][C@@]12OCCN(C(=O)c3ccncn3)[C@@]1([H])CC[C@@H]2OCc1cccnc1,-6.114%,-7.664%
CN(C)CC(=O)N1CCC2(CCc3cc(-c4cccnc4)ccc32)CC1.O=C(O)C(F)(F)F.O=C(O)C(F)(F)F,1.858%,37.66%
Fc1ccc(CN2CCCC2Cn2cncn2)c2ncccc12 (stereo not given),-34.48%,13.78%
Cc1cc(S(=O)(=O)NCC(O)c2sccc2C)ccc1F (stereo not given),14.45%,20.39% and 10.53%
N#Cc1cnn(C(=O)CCCOc2ccccc2Cl)c1N,-82.84%,-13.04%
Cc1cc2n(n1)CCN(c1nc(N)nc3c1CCNCC3)C2,-20.31%,3.631%
Cc1ccccc1C(=O)N1CC[C@@H](N2CCC(O)CC2)[C@H](O)C1,-6.114%,9.311%
CN(CC1CC1)c1ccc2ccc(C(=O)NCCc3ccccc3)cn12,-54.27%,16.48%
O=C(CSc1ccccn1)N1CCC(OCc2cccnc2)CC1,1.639%,-8.249%
CCN1C(=O)C2(CCOCC2)c2cc(NC(=O)c3csnn3)ccc21,-58%,3.881%
COc1cccc(OC2CN(C(=O)CCn3cnnn3)C2)c1,-11.11%,13.25%
COc1ccc(-c2nc(C#N)c(N(C)C)o2)cc1S(=O)(=O)N1CCCC1,-,3.953%
CC(C)c1noc(CCCC(=O)N2CCN(C)CC2c2ccccc2)n1 (stereo not given),-26.75%,18.57%
O=C(Nc1ccccc1N1CCOC1=O)N1CCc2sccc2C1,8.612%,-1.678%
CCn1c(C2CCN(C(=O)c3ccc4sc(C)nc4c3)CC2)n[nH]c1=O,-50.79%,18.27%
O=C(O)C(F)(F)F.O=C(O)C(F)(F)F.c1cncc(COCc2n[nH]c3c2CN(Cc2ccco2)C3)c1,-,-73.05%
COC(=O)c1cccc(S(=O)(=O)Nc2ccc(F)c(C(N)=O)c2)c1,-54.63%,13.91%
Cn1ccc(CNC(=O)N2CCC(C3(C)OCCO3)CC2)c1,-19.32%,10.7%

For reference, 4 entries once more:

SMILES	T. brucei	Leishmania in macrophages
O=C(CSc1ccccn1)N1CCC(OCc2cccnc2)CC1	1.639%	-8.249%
CC(C)c1noc(CCCC(=O)N2CCN(C)CC2c2ccccc2)n1 (stereo not given)	-26.75%	18.57%
CCCN1CCC2(C1)c1ccccc1S(=O)(=O)N2Cc1ccccc1.O=C(O)C(F)(F)F (stereo not given)	36.99%	32.5%
Cc1cc2n(n1)CCN(c1nc(N)nc3c1CCNCC3)C2	-20.31%	3.631%